# Results reported in PubChem BioAssay AID504834 (National Center for Advancing Translational Sciences (NCATS), 2011).
# Hit rate of the full screen: of about 320,000 compounds, about 22,000 (6.9%) were called active. The inconclusive results got no clear call from the source; some entries with a clear call stand among them for comparison. Calls follow the shape of the dose curve; as a rule, active = well fitted inhibition curve with a large enough effect; inconclusive = small, poorly fitted or top-dose-only effect, or another doubt; inactive = no such curve, though single readings can be large or run the other way. A potency beside an inconclusive call is a rough fit, not a confirmed value.
# Assay: Primary qHTS for delayed death inhibitors of the malarial parasite plastid, 96 hour incubation
# Details: P. falciparum luciferase reporter growth; series mostly up to 28.7 µM
# In short: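 Compounds incubated with erythrocytes infected by luciferase-expressing P. falciparum (2% hematocrit, 0.05% parasitemia final) for 96 hours, 37 C in 5% CO2. Growth inhibition scored as decreased luciferase luminescence.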
# Potency is read from the fitted curve at half-maximal effect.
row,SMILES,Potency
1,CC(C)c1nc2c(c(=O)c3ccccc3n2C)c(=O)n1CCc1ccccc1,active: 4.65 µM
2,Cc1nnsc1C(=O)Nc1ccc(S(=O)(=O)N2CCCCC2)cc1,"inconclusive: 10.4 µM [inhibitor, single point]"
3,CC(Oc1ccc(Cl)cc1Cl)C(=O)Nc1cccc(O)c1 (stereo unspecified),"inconclusive: 0.329 µM [inhibitor, partial curve, poor fit]"
4,Cc1cc(N2CCCC2=O)ccc1S(=O)(=O)NCCOc1ccccc1,"inconclusive: 10.4 µM [inhibitor, single point]"
5,COc1ccc(CC(=O)NNC(=O)Cc2ccc(OC)cc2)cc1,inactive
6,O=C(Nc1ccccc1N1CCCCC1)C1CCN(S(=O)(=O)c2cccc(C(F)(F)F)c2)CC1,"inconclusive: 18.5 µM [inhibitor, single point]"
7,NC(N)=NCCCC(NC(=O)c1ccccc1)C(=O)Nc1ccc([N+](=O)[O-])cc1 (stereo unspecified),active: 9.28 µM
8,COc1ccc(N2CC(O)(c3ccc(C)cc3)[N+]3=C2CCCC3)cc1 (stereo unspecified),"inconclusive: 10.4 µM [inhibitor, single point]"
9,COc1ccc(-n2nc3c(N4CCC(C(=O)N5CCCCCC5)CC4)nnc(C)c3c2C)cc1,"inconclusive: 11.7 µM [inhibitor, partial curve, poor fit]"
10,COc1cccc(NC(=O)N2CCN(c3nc(-c4cccc(OC)c4)cs3)CC2)c1,"inconclusive: 0.738 µM [inhibitor, full curve, poor fit]"
11,COc1ccc(C(=O)NCC(c2ccc3c(c2)OCO3)N2CCN(c3ccc(OC)cc3)CC2)cc1 (stereo unspecified),active: 2.62 µM
12,Nc1nnnn1/N=C/c1ccc(O)cc1,active: 2.08 µM
13,FC(F)(F)c1nc(-c2ccncc2)ncc1-c1nnnn1-c1ccccc1,"inconclusive: 10.4 µM [inhibitor, single point]"
14,COc1ccc(OC)c(CC(NC(C)=O)C(=O)NC2CCN(c3c(Cc4ccccc4)c(C)nc4ncnn34)CC2)c1 (stereo unspecified),"inconclusive: 18.5 µM [inhibitor, single point]"
15,CSc1cccc(NC(=O)C(C)NS(=O)(=O)c2ccc(F)cc2)c1 (stereo unspecified),"inconclusive: 9.28 µM [inhibitor, partial curve]"
16,CCOC(=O)CSc1nc(C)c(C(C)=O)cc1C#N,"inconclusive: 18.5 µM [inhibitor, single point]"
17,COc1cc(OC)c(C(=O)OCC(=O)Nc2ccccc2Cl)cc1OC,inactive
18,Cc1ccc(-c2nn(-c3ccccc3)cc2C2CC(c3cccs3)=NN2C(=O)CCCC(=O)O)cc1 (stereo unspecified),"inconclusive: 11.7 µM [inhibitor, single point]"
19,Cc1ccc(NC(=O)NCCCCc2ccccc2)cc1,inactive
20,COc1ccc(CCNc2ncnc3c2c(C)c(C)n3CCO)cc1OC,"inconclusive: 18.5 µM [inhibitor, single point]"
21,CNS(=O)(=O)c1ccc(-c2ccc(C=C3C(=O)NC(=O)NC3=O)o2)cc1,inactive
22,Nc1cc(N)nc(SCC(=O)Nc2cc(S(=O)(=O)N3CCOCC3)ccc2Cl)n1,"inconclusive: 1.31 µM [inhibitor, single point]"
23,COc1ccc(NC(=O)N2CCCC2C(=O)NCc2cccs2)cc1 (stereo unspecified),inactive
24,COc1ccc(OC)c(NC(=O)CCN2CC(C)OC(C)C2)c1 (stereo unspecified),active: 1.85 µM

row,SMILES,Potency
1,CC1CC(C)(C)CC2(C1)NC(=O)N(CC(=O)Nc1cc([N+](=O)[O-])ccc1F)C2=O (stereo unspecified),inactive
2,CSc1nsc(SCC(=O)N2CCCc3ccccc32)n1,"inconclusive: 9.28 µM [inhibitor, partial curve, poor fit]"
3,O=C(CN(C(=O)c1csnn1)c1ccc(F)c(Cl)c1)NC1CCCC1,"inconclusive: 11.7 µM [inhibitor, partial curve, poor fit]"
4,CN1C(=O)SC(Nc2ccc(F)cc2)C1=O (stereo unspecified),"inconclusive: 13.1 µM [inhibitor, single point]"
5,CCN(CC)C(=O)c1cc(C(C)(C)C)c(O)c(C(C)(C)C)c1,active: 10.4 µM
6,CN1CCN(c2nc3c(c(=O)[nH]c(=O)n3C)n2CCSc2ncccn2)CC1,"inconclusive: 0.0029 µM [inhibitor, full curve, poor fit]"
7,COc1cccc(C2CC(C(F)(F)F)n3ncc(C(=O)NC(C)(C)C)c3N2)c1 (stereo unspecified),"inconclusive: 11.7 µM [inhibitor, single point]"
8,Cc1ccc(Nc2cc(C)c3ccc(O)cc3n2)cc1C,"inconclusive: 0.262 µM [inhibitor, full curve]"
9,CCOC(=O)c1nnn(CC(=O)NC(=O)Nc2cccc(CC)c2)c1C(=O)OCC,"inconclusive: 4.65 µM [inhibitor, partial curve, poor fit]"
10,CCN1CCN(c2cc(C)c3cc(NC(=O)c4cncc(Br)c4)ccc3n2)CC1,active: 1.85 µM
11,O=C(Oc1cccc(-n2cnnn2)c1)c1ccco1,"inconclusive: 1.31 µM [inhibitor, partial curve, poor fit]"
12,Cc1noc(C)c1COc1ccccc1C(=O)N(C)CC(=O)Nc1cccc(F)c1,inactive
13,CC(CN1CCOCC1)OC(=O)c1ccc2c(c1)OCCO2 (stereo unspecified),inactive
14,Cc1ccc(NC(=O)CCNC(=O)Cn2cnc3ccccc3c2=O)cc1F,inactive
15,Cc1ccc(NC(=O)CN2CCCC2c2cccs2)cc1S(=O)(=O)N1CCCCC1 (stereo unspecified),"inconclusive: 10.4 µM [inhibitor, single point]"
16,COc1cc(NC(=O)Cc2ccccc2)ccc1NC(=O)c1ccccc1,active: 10.4 µM
17,O=C1COc2ccc(C(=O)COc3ccc(Cl)cc3Br)cc2N1,"inconclusive: 10.4 µM [inhibitor, partial curve]"
18,COc1ccc2c(CC(=O)N3CCc4cc(OC)c(OC)cc4C3)coc2c1,"inconclusive: 11.7 µM [inhibitor, single point]"
19,COc1ccc(-n2c(Cc3cccn3C)nnc2SCC(N)=O)cc1,inactive
20,O=C(c1cccc(C(F)(F)F)c1)N1CCN(S(=O)(=O)c2ccc(Cl)s2)CC1,"inconclusive: 0.0657 µM [inhibitor, full curve, poor fit]"
21,CC(=O)c1cccc(NC(=O)c2ccc(C)o2)c1,"inconclusive: 8.28 µM [inhibitor, partial curve]"
22,CCOC(=O)N1CCN(C(=O)CSc2nc3c(c(=O)n2-c2ccccc2OC)SCC3)CC1,active: 1.31 µM
23,Cc1cccc(N2CCN(Cc3ccc4c(c3)OCO4)CC2)c1C,inactive
24,CCOC(=O)c1[nH]c(C)c(C(=O)OCC(=O)N2c3ccccc3CC2C)c1C (stereo unspecified),"inconclusive: 9.28 µM [inhibitor, single point]"

# Single entries from the entries so far:
# For Potency, COc1ccc(-n2c(Cc3cccn3C)nnc2SCC(N)=O)cc1 is entered as inactive
# For Potency, O=C(CN(C(=O)c1csnn1)c1ccc(F)c(Cl)c1)NC1CCCC1 is entered as inconclusive: 11.7 µM [inhibitor, partial curve, poor fit]

# Next results.

row,SMILES,Potency
1,Cc1ccn2c(c1)nc(=S)n2C(=O)c1ccccc1,inactive
2,COc1ccccc1OCc1nnc(SCC(=O)c2cc(Cl)ccc2OC)o1,"inconclusive: 0.928 µM [inhibitor, partial curve, poor fit]"
3,Cc1ccc(S(=O)(=O)N2CCCC2C(=O)Oc2ccccc2)cc1 (stereo unspecified),"inconclusive: 11.7 µM [inhibitor, single point]"
4,Cc1ccc(C)c(-c2csc(NC(=O)c3c(C)noc3C)n2)c1,"inconclusive: 13.1 µM [inhibitor, single point]"
5,CCCCNC(=O)CSc1nc2cc3c(cc2c(=O)n1CCCN(CC)CC)OCO3,"inconclusive: 0.0657 µM [inhibitor, full curve, poor fit]"
6,Cc1ncc(CO)c(/C=N/NC(=S)Nc2cccc(Cl)c2)c1O,"inconclusive: 1.85 µM [inhibitor, full curve, poor fit]"
7,COc1cc(/C=N/Nc2ccccc2)ccc1O,active: 10.4 µM
8,O=C(/C=C/c1ccccc1Cl)N(c1ccccn1)C1CCCCC1,"inconclusive: 10.4 µM [inhibitor, single point]"
9,FC(F)(F)c1cccc(CNC2CCN(Cc3ccccc3)CC2)c1,"inconclusive: 4.65 µM [inhibitor, partial curve, poor fit]"
10,CCc1ccc(NC2=NCC(=O)N2Cc2ccc3c(c2)OCO3)cc1,active: 9.28 µM
11,CCOC(=O)c1[nH]c(=O)c2ccccc2c1O,inactive
12,Cc1onc(-c2c(F)cccc2Cl)c1C(=O)N(C)CC(=O)Nc1cccc(F)c1,inactive
13,COc1ccc(S(=O)(=O)N2CCN(C)CC2)cc1,"inconclusive: 4.15 µM [inhibitor, single point]"
14,Oc1ccc(CNCc2ccc3c(c2)OCO3)c2cccnc12,"inconclusive: 18.5 µM [inhibitor, single point]"
15,CC1(C)Cc2nc3scc(NC(=O)c4ccccc4)c3cc2CO1,inactive
16,CC(=O)NC12CC3CC(C1)CC(C(=O)Oc1ccc(N(C)S(=O)(=O)c4cc(C)ccc4C)cc1)(C3)C2,active: 13.1 µM
17,COC(=O)c1ccc(CSc2nc3c(cnn3-c3ccc(F)cc3)c(=O)[nH]2)o1,"inconclusive: 2.08 µM [inhibitor, full curve]"
18,O=C(CNC(=O)c1cccnc1)N/N=C/c1ccc(O)cc1O,inactive
19,COc1ccc(N)cc1NC(=O)CN1CCCC1,active: 0.117 µM
20,Cc1ccc(OCCn2nnc3ccccc32)cc1C,"inconclusive: 10.4 µM [inhibitor, single point]"
21,CCOC(=O)N1CCN(C(=O)CN(CC)S(=O)(=O)c2cc(C)ccc2OC)CC1,"inconclusive: 14.7 µM [inhibitor, single point]"
22,Cc1ccccc1NC(=O)Cc1nc(COC(=O)CC(C)c2ccccc2)cs1 (stereo unspecified),"inconclusive: 18.5 µM [inhibitor, single point]"
23,CCOc1ccc(-c2cc(N3C(=O)Nc4ccccc4N3O)on2)cc1,"inconclusive: 16.5 µM [inhibitor, partial curve, poor fit]"
